Measured data: PubChem BioAssay AID686943 (Drosophila RNAi Screening Center, 2013)
The screen tested about 23,000 reagents; shown is a random part of those with a known target gene and a result. 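Extra replicates exist only for a retested subset of genes; insulin dose and duration not given; both raised and lowered dpERK matter.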 Not all columns of the deposit are shown. Not given: the amount of reagent, the time to read-out.

Purpose: 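Search across the genome for regulators of signalling from receptor tyrosine kinase to ERK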 (primary screen)
Cells: Drosophila S2R+ haemocyte-like cells expressing YFP-tagged ERK (Rolled)
Reagent: long dsRNA against Drosophila genes
Challenge: insulin stimulation versus unstimulated cells; dose and duration not given
Detection: 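Per-plate z-scores of phospho-ERK immunostaining normalised to YFP-tagged ERK, measured with and without insulin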
Reading the numbers: replicate 1, z-score of dpERK with insulin and replicate 2, z-score of dpERK with insulin: higher = more active ERK per ERK-YFP after insulin

predicted target | DRSC id | replicate 1, z-score of dpERK with insulin | replicate 2, z-score of dpERK with insulin
aft (adrift) | DRSC07576 | 0.31 | -0.02
CG33346 | DRSC22898 | 0.69 | 0.12
CG43084 | DRSC09998 | 1.23 | -0.29
CG32445 | DRSC11678 | 0.59 | 1.2
Nnk (Nicknack) | DRSC15274 | -0.12 | -0.09
Polr3A (RNA polymerase III subunit A) | DRSC19766 | 0.3 | 0.02
Osi12 (Osiris 12) | DRSC12177 | 0.94 | 0.5
Atg16 (Autophagy-related 16) | DRSC15052 | -0.98 | -1.01
Atg16 (Autophagy-related 16) | DRSC15300 | 0.08 | 1.26
Atg16 (Autophagy-related 16) | DRSC15375 | 0.6 | -0.03

Next part; the last 2 above are carried over.
predicted target | DRSC id | replicate 1, z-score of dpERK with insulin | replicate 2, z-score of dpERK with insulin
Atg16 (Autophagy-related 16) | DRSC15300 | 0.08 | 1.26
Atg16 (Autophagy-related 16) | DRSC15375 | 0.6 | -0.03
Brms1 (BRMS1 transcriptional repressor) | DRSC19896 | 0.82 | 1.08
Cyp6w1 (Cytochrome P450 6w1) | DRSC04909 | -0.2 | 0.14
Taf6 (TBP-associated factor 6) | DRSC11299 | 0.36 | 0.29
unc-4 | DRSC20381 | 1.24 | -0.83
unc-4 | DRSC22074 | 0.04 | -0.33
FucTD (alpha1,3-fucosyltransferase D) | DRSC08634 | 0.05 | -0.25
CG7084 | DRSC16194 | -0.19 | 0.68
Polr2L (RNA polymerase II, I and III subunit L) | DRSC14630 | 5.41 | 2.56
GstE5 (Glutathione S transferase E5) | DRSC06675 | 0.61 | 0.09
Iris | DRSC00663 | -0.26 | 0.23
ab (abrupt) | DRSC01162 | -2.8 | -2.26
ab (abrupt) | DRSC03478 | -1.14 | -4.25
Tsp2A (Tetraspanin 2A) | DRSC18584 | -0.22 | 1.19
